Reference: PubChem BioAssay AID1259307 (Sanger Institute, 2017)
The deposit covers 794 reagents; shown is a part drawn at random. In the full data, 15 (1.9%) are marked active. 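Calls reflect lethality without any drug; synergy scores did not enter the calls.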 A number with no mark means an inactive call. No viability above 1 is reported: the scale is capped. Further read-outs or replicates are left out here. The record does not give: the amount of reagent, the time to read-out.

Assay: 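Screen of kinase gene silencing for colorectal cancer cell killing and drug cooperation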 (primary screen)
System: SW620 colorectal cancer cells
Reagents: siRNA pool against human genes
Conditions: anchor drugs BYL719 at 1 µM, cetuximab at 5 µg/ml or trametinib at 10 nM, each beside a DMSO vehicle arm
Measurement: 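Cell viability in each well relative to non-targeting controls, averaged over replicates and turned into a robust z-score; synergy with BYL719 (1 µM), cetuximab (5 µg/ml), trametinib (10 nM) versus DMSO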
Scale: viability robust z-score, no drug and viability vs control, no drug: higher = more viable cells
Hit rule: 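Essential when the viability robust z-score without drug is under -3; synergy scores are ignored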
Meaning of the calls: active = essential (lethal alone); inactive = no change alone

BMP2K [SID135620930] → viability robust z-score, no drug = -1.08; viability vs control, no drug = 0.832
GNE [SID56479101] → viability robust z-score, no drug = 0.465; viability vs control, no drug = 0.975
PLK2 [SID56478648] → viability robust z-score, no drug = -1.93; viability vs control, no drug = 0.754
MYO3B [SID152152883] → viability robust z-score, no drug = 0.736; viability vs control, no drug = 1
CDKL5 [SID135620888] → viability robust z-score, no drug = 0.421; viability vs control, no drug = 0.971
FGFR2 [SID152155469] → viability robust z-score, no drug = 0.297; viability vs control, no drug = 0.959
MYH10 [SID134325581] → viability robust z-score, no drug = 0.681; viability vs control, no drug = 0.995
CDC7 [SID56478594] → viability robust z-score, no drug = 0.467; viability vs control, no drug = 0.975
ARAF [SID152151166] → viability robust z-score, no drug = 0.61; viability vs control, no drug = 0.988
PIK3R2 [SID135620607] → viability robust z-score, no drug = -1.14; viability vs control, no drug = 0.827
CSNK1G2 [SID152151854] → viability robust z-score, no drug = 0.736; viability vs control, no drug = 1
PKN1 [SID56478783] → viability robust z-score, no drug = 0.0298; viability vs control, no drug = 0.935

Quoted from the entries so far for reference:
CSNK1G2 [SID152151854] → viability robust z-score, no drug = 0.736; viability vs control, no drug = 1
PKN1 [SID56478783] → viability robust z-score, no drug = 0.0298; viability vs control, no drug = 0.935
